Assay results reported in patent publication US20060258581A1, “Methods and composition for derepressions of IAP-inhibited caspase” (priority 2001, published 2006).
For part of these data: Part of at least one peptide drawing is inferred or uncertain, most often the ends. For part of these data: For at least one compound, name, drawing or mass did not settle the structure. Where a SMILES comes first, the peptide text is derived from it. [ ]: non-standard residue; d: D form. The star is where a group is joined. Phe(4-Cl) = N[C@@H](Cc1ccc(Cl)cc1)C(=O)O; 2Nal = N[C@@H](Cc1ccc2ccccc2c1)C(=O)O; Fmoc = O=C(OCC1c2ccccc2-c2ccccc21)*; 2Thi = N[C@@H](Cc1cccs1)C(=O)O

Sequences of proteins named here, by UniProt entry; tags and fusion partners are left off.
UniProt P98170, whole entry: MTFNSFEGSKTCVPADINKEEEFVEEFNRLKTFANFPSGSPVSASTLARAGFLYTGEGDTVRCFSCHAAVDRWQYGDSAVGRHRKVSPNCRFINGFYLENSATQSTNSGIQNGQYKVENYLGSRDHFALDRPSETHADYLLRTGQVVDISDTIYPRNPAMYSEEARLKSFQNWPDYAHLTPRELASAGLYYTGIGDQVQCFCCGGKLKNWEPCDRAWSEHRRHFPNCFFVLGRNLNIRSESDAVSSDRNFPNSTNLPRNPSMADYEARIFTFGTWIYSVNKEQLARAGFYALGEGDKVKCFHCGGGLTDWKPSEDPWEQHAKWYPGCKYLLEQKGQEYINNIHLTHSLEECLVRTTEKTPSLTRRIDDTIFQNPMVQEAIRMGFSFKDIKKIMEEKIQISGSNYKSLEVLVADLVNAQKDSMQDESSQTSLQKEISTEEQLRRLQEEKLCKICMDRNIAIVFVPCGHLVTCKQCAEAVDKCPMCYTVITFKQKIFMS

Legend:
[1] = test system: ALVA31 prostate cancer cells; assay: ALVA31 prostate cancer cell viability (XTT dye-reduction, trypan blue); format: cell-based; conditions: 24 hrs; peptides 40 μM, VP-16 100 μM
Description: The in vivo effects of TPI 792-33 or TPI 792-35, either individually or in combination with the cytotoxic anticancer drug VP-16 (etoposide), on derepression of XIAP-inhibited caspase and viability of ALVA31 cells was determined as follows. ALVA31 prostate cancer cells were seeded onto 96 well plates (10^4 cells/well) in 100 μL RPMI containing 2.5% fetal bovine serum (FBS). […] After another 24 hrs-incubation, cell viability was measured by the XTT dye-reduction assay (Roche, Molecular Biochemicals; Indianapolis, Ind.) and trypan blue dye exclusion assay.

[2] = test system: Jurkat leukemia cells; assay: Jurkat leukemia cell death, Annexin V/propidium iodide flow cytometry; format: cell-based; conditions: one day; in words
Description: The following assay was used to test the ability of individual compounds from the TPI 1396 and TPI 1391 libraries to induce apoptosis of cultured tumor cell lines. Each of the compounds listed in Table IX was individually added to Jurkat leukemia cells (6.25×10^5 cells/mL) in RPMI containing 2.5% FBS at various concentrations for 20 hours. After incubation, cells were washed and stained with FITC-conjugated Annexin V antibody and propidium iodide (Biovision; Mountain View, Calif.). Cells were incubated for 20 minutes at room temperature in the dark and fluorescence was measured by flow cytometry (FACScan, Immunocytometry system; Becton-Dickinson; San Jose, Calif.). Cells staining positive for Annexin V were deemed non-viable.
The TPI I396-34 and TPI 1391-28 compounds were further tested as set forth below.

[3] = test system: chronic lymphocytic leukemia (CLL) B-cells; assay: Freshly isolated CLL B-cells from patients, annexin-V/propidium iodide; format: cell-based, human; conditions: 20-24 hours
Excerpt: (§1) Since many tumor and leukemia cell lines proliferate faster than normal cells, it was investigated whether the polyphenylurea compounds could induce apoptosis of non-replicating malignant cells. […] Thus, cell replication is not required for sensitivity to the disclosed poly-phenylurea compounds.

[4] = test system: acute myelogenous leukemia (AML) blasts; assay: Freshly isolated AML leukemic blasts from patients, annexin-V; format: cell-based, human; conditions: 20-24 hours
Excerpt: as §1

[5] = target: full length XIAP (Homo sapiens, UniProt P98170); assay: Potency of IAP antagonists in vitro (Table VIII; caspase derepression / SMAC competition with full length XIAP); conditions: amount of compound necessary to restore caspase-3 activity to 50% of Vmax

| Compound | cell viability, compound alone [1] | effect on viability of Jurkat leukemia cells [2] | apoptosis induction [3] | apoptosis induction [4] | EC50 [5] |
| --- | --- | --- | --- | --- | --- |
| CC[C@H](C)[C@H](NC(=O)[C@@H]1CCCN1C(=O)[C@@H](NC(=O)[C@H](C)N)C(C)C)C(=O)O [SMAC AVPI tetrapeptide, AVPI, reference compound] | no effect | no significant effect | did not induce apoptosis | did not induce apoptosis | – |
| N[C@@H](Cc1cccs1)C(=O)N[C@@H](Cc1ccc2ccccc2c1)C(=O)N[C@H](CCCCNC(=O)OCC1c2ccccc2-c2ccccc21)C(=O)N[C@@H](CCCCNC(=O)OCC1c2ccccc2-c2ccccc21)C(=O)O [TPI 792-35, L-3-(2-thienyl)-alanyl, L-(2-naphthyl)-alanyl-D-(e-fluorenylmethyloxycarbonyl)-lysyl-L-(e-fluorenylmethyloxycarbonyl)-lysine] (H-[2Thi][2Nal][dK](Fmoc)K(Fmoc)-OH) | – | – | – | – | 51 µM |
| N[C@@H](Cc1cccs1)C(=O)N[C@@H](Cc1ccc2ccccc2c1)C(=O)N[C@@H](Cc1ccc(Cl)cc1)C(=O)N[C@@H](CCCCNC(=O)OCC1c2ccccc2-c2ccccc21)C(=O)O [TPI 792-33, L-3-(2-thienyl)-alanyl-L-(2-naphthyl)-alanyl-L-p-chloro-phenylalanyl-L-(e-fluorenylmethyloxycarbonyl)-lysine] (H-[2Thi][2Nal][Phe(4-Cl)]K(Fmoc)-OH) | – | – | – | – | 24 µM |
